The other results are listed elsewhere or left out. Repeats are few or missing, and single values can be far off.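 Cells were imaged in 1,536-well plates, and nuclei stained with an antibody against cleaved PARP were counted against all DNA-stained nuclei to give the apoptosis fraction. Screening doses were chosen to leave most cells alive, and resting and induced cleaved-PARP levels differ strongly between cell lines.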
Tests used:
Assay in all cases: cleaved PARP positive nuclei fraction relative to DMSO control; melanoma cells; higher = more apoptosis
Conditions in all cases: library dose: low library concentration; 72 h
[1] = tested on: MZ2-MEL
[2] = tested on: MeWo
[3] = tested on: RPMI7951
[4] = tested on: RVH-421
[5] = tested on: SkMel28
[6] = tested on: SkMel2
[7] = tested on: SkMel30
[8] = tested on: SkMel5
[9] = tested on: UACC257
[10] = tested on: UACC62
[11] = tested on: WM115
[12] = tested on: WM1716
[13] = tested on: WM1745
[14] = tested on: WM3526
[15] = tested on: WM3619
[16] = tested on: WM451Lu

| Structure (SMILES) | cleaved PARP positive nuclei fraction [1] [%] | cleaved PARP positive nuclei fraction [2] [%] | cleaved PARP positive nuclei fraction [3] [%] | cleaved PARP positive nuclei fraction [4] [%] | cleaved PARP positive nuclei fraction [5] [%] | cleaved PARP positive nuclei fraction [6] [%] | cleaved PARP positive nuclei fraction [7] [%] | cleaved PARP positive nuclei fraction [8] [%] | cleaved PARP positive nuclei fraction [9] [%] | cleaved PARP positive nuclei fraction [10] [%] | cleaved PARP positive nuclei fraction [11] [%] | cleaved PARP positive nuclei fraction [12] [%] | cleaved PARP positive nuclei fraction [13] [%] | cleaved PARP positive nuclei fraction [14] [%] | cleaved PARP positive nuclei fraction [15] [%] | cleaved PARP positive nuclei fraction [16] [%] |
| --- | --- | --- | --- | --- | --- | --- | --- | --- | --- | --- | --- | --- | --- | --- | --- | --- |
| CC1(C)CCC(c2ccc(Cl)cc2)=C(CN2CCN(c3ccc(C(=O)NS(=O)(=O)c4ccc(N[C@H](CCN5CCOCC5)CSc5ccccc5)c(S(=O)(=O)C(F)(F)F)c4)cc3)CC2)C1 + CC(C)(C)c1cnc(CSc2cnc(NC(=O)C3CCNCC3)s2)o1 [SNS-032] (first compound 0.4 µM, partner dose 0.01 µM) | 354 | 109 | 130 | 127 | 35.4 | 293 | 83.7 | 569 | 152 | 25.8 | 253 | 475 | 553 | 77.5 | 120 | 23.1 |
| CS(=O)(=O)c1ccc(C(=O)Nc2ccc(Cl)c(-c3ccccn3)c2)c(Cl)c1 [vismodegib] + O=C1NC(=O)/C(=C/c2ccc(-c3ccc(F)cc3O)o2)S1 [AS252424] (first compound 1 µM, partner dose 1 µM) | 128 | 56.7 | 75.4 | 91.3 | 33.1 | 39.6 | 54.5 | 77.1 | 207 | 101 | 74.7 | 106 | 103 | 71.5 | 77.3 | 123 |
| CN(c1ncccc1CNc1nc(Nc2ccc3c(c2)CC(=O)N3)ncc1C(F)(F)F)S(C)(=O)=O + CC(C)CCN1c2nc(Nc3cc(F)c(O)c(F)c3)ncc2N(C)C(=O)C1C [BID1870] (first compound 0.08 µM, partner dose 0.2 µM) | 123 | 40.6 | 121 | 26.7 | 99.1 | 168 | 186 | 263 | 209 | 119 | 233 | 58.4 | 115 | 75.6 | 88.2 | 288 |
| CC1(C)CCC(c2ccc(Cl)cc2)=C(CN2CCN(c3ccc(C(=O)NS(=O)(=O)c4ccc(N[C@H](CCN5CCOCC5)CSc5ccccc5)c(S(=O)(=O)C(F)(F)F)c4)cc3)CC2)C1 + C=CCn1c(=O)c2cnc(Nc3ccc(N4CCN(C)CC4)cc3)nc2n1-c1cccc(C(C)(C)O)n1 [MK1775] (first compound 0.4 µM, partner dose 0.02 µM) | 261 | 564 | 212 | 126 | 33.7 | 196 | 237 | 39.7 | 135 | 88.1 | 594 | 309 | 1560 | 92.8 | 251 | 30.3 |
| COc1ccc(C2=N[C@@H](c3ccc(Cl)cc3)[C@@H](c3ccc(Cl)cc3)N2C(=O)N2CCNC(=O)C2)c(OC(C)C)c1 [Nutlin-3] + O=C(Nc1cccc(Cl)c1)Nc1ncc(CCNc2ncnc3ccsc23)s1 [SNS314] (first compound 0.1 µM, partner dose 0.0008 µM) | 68.5 | 47 | 86.5 | 49.6 | 65.3 | 231 | 205 | 161 | 375 | 79.8 | 256 | 58.8 | 102 | 57.2 | 112 | 124 |
| CN(c1ncccc1CNc1nc(Nc2ccc3c(c2)CC(=O)N3)ncc1C(F)(F)F)S(C)(=O)=O + CC1(C)NC(=O)N(c2ccc([N+](=O)[O-])c(C(F)(F)F)c2)C1=O [nilutamide] (first compound 0.08 µM, partner dose 1 µM) | 121 | 152 | 253 | 76.1 | 60.3 | 82.4 | 56.5 | 98.1 | 83.2 | 118 | 150 | 103 | 102 | 67.3 | 95.4 | 65.6 |
| CN(c1ncccc1CNc1nc(Nc2ccc3c(c2)CC(=O)N3)ncc1C(F)(F)F)S(C)(=O)=O + COc1cc2ncnc(Nc3ccc(Oc4ccccc4)cc3)c2cc1OC [SrcI1] (first compound 0.08 µM, partner dose 2 µM) | 47 | 78.4 | 351 | 140 | 129 | 199 | 47.3 | 81.8 | 41.2 | 125 | 134 | 33.6 | 118 | 78.7 | 92 | 266 |
| CC(=O)O[C@@]12CO[C@@H]1C[C@H](O)[C@@]1(C)C(=O)[C@H](O)C3=C(C)[C@@H](OC(=O)[C@H](O)[C@@H](NC(=O)OC(C)(C)C)c4ccccc4)C[C@@](O)([C@@H](OC(=O)c4ccccc4)[C@H]21)C3(C)C [Docetaxel] + Oc1cc(-c2nc(-c3ccccc3)[nH]c2-c2ccncc2)ccc1Cl [L779450] (first compound 0.0001 µM, partner dose 0.2 µM) | 292 | 565 | 302 | 92.9 | 521 | 341 | 220 | 379 | 499 | 614 | 754 | 710 | 213 | 403 | 142 | 189 |
| C[C@]1(O)C[C@@H](c2nc(-c3ccc4ccc(-c5ccccc5)nc4c3)c3c(N)nccn32)C1 + COc1cc2ncnc(Nc3ccc(Oc4ccccc4)cc3)c2cc1OC [SrcI1] (first compound 0.4 µM, partner dose 2 µM) | 183 | 163 | 86 | 218 | 186 | 76.7 | 325 | 71.9 | 26.4 | 103 | 142 | 20.3 | 130 | 173 | 101 | 30.6 |
| CS(=O)(=O)c1ccc(C(=O)Nc2ccc(Cl)c(-c3ccccn3)c2)c(Cl)c1 [vismodegib] + COc1ccc(-c2ccc3c(N4CCOCC4)nc(N4C[C@@H](C)O[C@@H](C)C4)nc3n2)cc1CO [KU0063794] (first compound 1 µM, partner dose 0.02 µM) | 67.8 | 239 | 42.7 | 248 | 110 | 111 | 56.7 | 75.8 | 131 | 114 | 99.3 | 35.6 | 81.5 | 135 | 282 | 31.8 |
| CC(=O)O[C@@]12CO[C@@H]1C[C@H](O)[C@@]1(C)C(=O)[C@H](O)C3=C(C)[C@@H](OC(=O)[C@H](O)[C@@H](NC(=O)OC(C)(C)C)c4ccccc4)C[C@@](O)([C@@H](OC(=O)c4ccccc4)[C@H]21)C3(C)C [Docetaxel] + Oc1nc(-c2ccc(C(F)(F)F)cc2)nc2c1CSCC2 [XAV939] (first compound 0.0001 µM, partner dose 2 µM) | 321 | 169 | 805 | 178 | 628 | 747 | 257 | 103 | 291 | 689 | 204 | 2930 | 267 | 194 | 113 | 71.4 |
| CC(=O)O[C@@]12CO[C@@H]1C[C@H](O)[C@@]1(C)C(=O)[C@H](O)C3=C(C)[C@@H](OC(=O)[C@H](O)[C@@H](NC(=O)OC(C)(C)C)c4ccccc4)C[C@@](O)([C@@H](OC(=O)c4ccccc4)[C@H]21)C3(C)C [Docetaxel] + O=C(Nc1cccc(Cl)c1)Nc1ncc(CCNc2ncnc3ccsc23)s1 [SNS314] (first compound 0.0001 µM, partner dose 0.0008 µM) | 695 | 509 | 113 | 71.4 | 451 | 491 | 196 | 64.6 | 381 | 1000 | 138 | 421 | 208 | 120 | 141 | 350 |
| CS(=O)(=O)c1ccc(C(=O)Nc2ccc(Cl)c(-c3ccccn3)c2)c(Cl)c1 [vismodegib] + C[C@@H]1CCN(C(=O)CC#N)C[C@@H]1N(C)c1ncnc2[nH]ccc12 [CP690550] (first compound 1 µM, partner dose 1 µM) | 99.7 | 57.3 | 106 | 57.8 | 58.3 | 92 | 62.8 | 108 | 34.6 | 27.3 | 208 | 69.2 | 95.3 | 124 | 105 | 132 |
| CN(c1ncccc1CNc1nc(Nc2ccc3c(c2)CC(=O)N3)ncc1C(F)(F)F)S(C)(=O)=O + Oc1nc(-c2ccc(C(F)(F)F)cc2)nc2c1CSCC2 [XAV939] (first compound 0.08 µM, partner dose 2 µM) | 47.7 | 172 | 39.6 | 137 | 108 | 115 | 42.6 | 208 | 487 | 64.8 | 196 | 431 | 120 | 95.6 | 91.7 | 92.9 |
| NC1(c2ccc(-c3nc4ccn5c(=O)[nH]nc5c4cc3-c3ccccc3)cc2)CCC1 + NCC(=O)Nc1ccc(-n2nc(C(F)(F)F)cc2-c2ccc3c(ccc4ccccc43)c2)cc1 [OSU03012] (first compound 0.4 µM, partner dose 1 µM) | 44 | 67.1 | 66 | 26.3 | 77.4 | 78.5 | 112 | 95.2 | 268 | 368 | 228 | 75 | 102 | 96.8 | 89.1 | 48 |

Limited to cleaved PARP positive nuclei fraction [5] [%], for some of the entries so far:

| Structure (SMILES) | cleaved PARP positive nuclei fraction [5] [%] |
| --- | --- |
| COc1ccc(C2=N[C@@H](c3ccc(Cl)cc3)[C@@H](c3ccc(Cl)cc3)N2C(=O)N2CCNC(=O)C2)c(OC(C)C)c1 [Nutlin-3] + O=C(Nc1cccc(Cl)c1)Nc1ncc(CCNc2ncnc3ccsc23)s1 [SNS314] (first compound 0.1 µM, partner dose 0.0008 µM) | 65.3 |
| CN(c1ncccc1CNc1nc(Nc2ccc3c(c2)CC(=O)N3)ncc1C(F)(F)F)S(C)(=O)=O + CC1(C)NC(=O)N(c2ccc([N+](=O)[O-])c(C(F)(F)F)c2)C1=O [nilutamide] (first compound 0.08 µM, partner dose 1 µM) | 60.3 |
